PubChem BioAssay AID1508597 | Cure First – 2020
Test: 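Survival screen with siRNA in ovarian cancer cells derived from patients, with or without rucaparib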 (primary screen). Cell system: human ovarian carcinoma lines grown from tumours: OCI-P5x (papillary serous) and OCI-C5x (clear cell). Reagents: siRNA pool against human genes, 1.25 pmol siRNA per well. Duration: 72 h or 96 h, depending on the cell culture. Treatment: rucaparib 20 µM (about IC30) or vehicle, present until read-out. Rucaparib or vehicle: Rucaparib. Cell line: OCI-P5x (serous). Read-out: 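ATP luminescence measured at 72 or 96 h according to the culture, then normalised and expressed as percent viability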. Reading the numbers: viability, normalised: higher = more viable cells remaining. Call rule: 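a well counts as a hit if its normalised viability is under 80 percent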. Meaning of the calls: active = viability under 80%; inactive = viability 80% or more.
Shown is an unselected part of the about 2,100 reagents, under one of the conditions tested. 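Calls flag viability under 80% in either arm, not effects specific to rucaparib; the reference for percent is not stated.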 No sequences are given here. The record does not give: the 100% reference.

What is on record for ITPKC, technical replicate 1?
viability, normalised (%): 73.6; Outcome: active

With ITPKC, technical replicate 2, what does the deposit list?
viability, normalised (%): 84.7; Outcome: inactive

What is on record for ITPKC, technical replicate 3?
viability, normalised (%): 86.7; Outcome: inactive

With DGKQ, technical replicate 1, what was measured?
viability, normalised (%): 45.8; Outcome: active

For DGKQ, technical replicate 2, what does the deposit list?
viability, normalised (%): 56.3; Outcome: active

With DGKQ, technical replicate 3, how do the results read?
viability, normalised (%): 51.3; Outcome: active

With USP21, technical replicate 1, how do the results read?
viability, normalised (%): 100; Outcome: inactive

For USP21, technical replicate 2, what does the deposit list?
viability, normalised (%): 71.6; Outcome: active

Which result is listed for USP21, technical replicate 3?
viability, normalised (%): 70.9; Outcome: active

For SUPT4H1, technical replicate 1, how do the results read?
viability, normalised (%): 55.5; Outcome: active

For SUPT4H1, technical replicate 2, what was measured?
viability, normalised (%): 62.8; Outcome: active

For SUPT4H1, technical replicate 3, how do the results read?
viability, normalised (%): 69.2; Outcome: active

Reformatted: entries from further up.
USP21, technical replicate 2
- viability, normalised (%): 71.6
- Outcome: active

USP21, technical replicate 3
- viability, normalised (%): 70.9
- Outcome: active

SUPT4H1, technical replicate 1
- viability, normalised (%): 55.5
- Outcome: active

SUPT4H1, technical replicate 2
- viability, normalised (%): 62.8
- Outcome: active

More entries follow.
For NHERF1, technical replicate 1, what does the deposit list?
viability, normalised (%): 38; Outcome: active

What did the screen give for NHERF1, technical replicate 2?
viability, normalised (%): 46; Outcome: active

What is on record for NHERF1, technical replicate 3?
viability, normalised (%): 47; Outcome: active

With EHMT2, technical replicate 1, what does the deposit list?
viability, normalised (%): 36.4; Outcome: active

How did the screen score EHMT2, technical replicate 2?
viability, normalised (%): 42.3; Outcome: active

With EHMT2, technical replicate 3, what does the deposit list?
viability, normalised (%): 45.4; Outcome: active

How did the screen score AGO3, technical replicate 1?
viability, normalised (%): 67.5; Outcome: active

With AGO3, technical replicate 2, how do the results read?
viability, normalised (%): 60.8; Outcome: active

With AGO3, technical replicate 3, how do the results read?
viability, normalised (%): 64.9; Outcome: active

What did the screen give for LIMK1, technical replicate 1?
viability, normalised (%): 82.3; Outcome: inactive

What is on record for LIMK1, technical replicate 2?
viability, normalised (%): 93.8; Outcome: inactive

How did the screen score LIMK1, technical replicate 3?
viability, normalised (%): 77.3; Outcome: active

What did the screen give for ARX, technical replicate 1?
viability, normalised (%): 63.8; Outcome: active

For ARX, technical replicate 2, how do the results read?
viability, normalised (%): 63.8; Outcome: active

With ARX, technical replicate 3, what does the deposit list?
viability, normalised (%): 62.7; Outcome: active

For EID2, technical replicate 1, how do the results read?
viability, normalised (%): 55.4; Outcome: active

Which result is listed for EID2, technical replicate 2?
viability, normalised (%): 49.8; Outcome: active

With EID2, technical replicate 3, what was measured?
viability, normalised (%): 49.9; Outcome: active

What did the screen give for DHX30, technical replicate 1?
viability, normalised (%): 55.7; Outcome: active

What is on record for DHX30, technical replicate 2?
viability, normalised (%): 57.6; Outcome: active

For DHX30, technical replicate 3, what does the deposit list?
viability, normalised (%): 59.4; Outcome: active
